Reference: PubChem BioAssay AID743121 (NCATS, 2013)
In all, the deposit lists about 26,000 reagents; shown is a part drawn at random. 167 of them (0.63%) were called active. 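Calls are per gene from RSA p-values that are not deposited; an individual active-marked siRNA can sensitise only weakly.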 The numbers tell different reagents against one gene apart. Further read-outs or replicates are left out here.

- Assay: 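Genes whose silencing strengthens cell killing by camptothecin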 (primary screen)
- System: MDA-MB-231 cells, a human breast cancer line
- Reagents: single siRNA against human genes, 20 nM siRNA (0.8 pmol per well)
- Time to read-out: 120 h (drug added 48 h after transfection, read 72 h later)
- Treatment: camptothecin 20 nM (about EC30) for 72 h; vehicle 0.1% DMSO in parallel plates
- Detection: 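Cell viability by ATP luminescence (CellTiter-Glo) as % of non-targeting siRNA wells, and the log2 ratio of viability without drug over viability with camptothecin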
- Direction: log2 vehicle/camptothecin viability: higher = stronger sensitisation to camptothecin
- Active means: 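Each gene scored by redundant siRNA activity (RSA) over its individual siRNA ratios; a gene is called active at p < 0.001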

log2 vehicle/camptothecin viability, by gene and reagent
USP15: #1 -0.432 inactive; #2 -0.145 inactive; #3 0.285 inactive; #4 -0.0692 inactive
CA10: #1 0.0535 inactive; #2 -0.0132 inactive; #3 -0.251 inactive
MAGT1: #1 -0.171 inactive; #2 -0.02 inactive; #3 0.485 inactive; #4 1.04 inactive
SKIL: #1 -0.511 inactive; #2 -0.217 inactive; #3 -0.371 inactive
USP32P2: #1 -0.381 inactive; #2 -0.0844 inactive; #3 0.0889 inactive; #4 -0.679 inactive
NUP98: #1 -0.636 inactive; #2 -0.48 inactive; #3 -0.265 inactive; #4 -0.387 inactive
DPF1: #1 -0.163 inactive; #2 0.226 inactive; #3 -0.24 inactive; #4 0.0258 inactive
MAPK13: #1 -0.507 inactive; #2 -0.0985 inactive; #3 -0.229 inactive; #4 0.379 inactive
PRSS33: #1 -0.113 inactive; #2 -0.0756 inactive; #3 -0.354 inactive; #4 0.0891 inactive

Sorted by “log2 vehicle/camptothecin viability” (high to low): some entries from above.
Gene	reagent no.	log2 vehicle/camptothecin viability	call
DPF1	2	0.226	inactive
DPF1	1	-0.163	inactive
DPF1	3	-0.24	inactive
NUP98	3	-0.265	inactive
NUP98	4	-0.387	inactive
NUP98	2	-0.48	inactive

Additional records follow:
log2 vehicle/camptothecin viability, by gene and reagent
ABL1: #1 -0.257 inactive; #2 0.307 inactive; #3 -0.306 inactive; #4 -0.376 inactive
KCNH2: #1 0.00705 inactive; #2 -0.118 inactive; #3 -0.0207 inactive; #4 -0.215 inactive
TMPRSS13: #1 0.3 inactive; #2 0.262 inactive; #3 0.496 inactive; #4 -0.21 inactive
DNAH11: #1 -0.117 inactive; #2 -0.0496 inactive; #3 -0.0863 inactive
CFD: #1 -0.0474 inactive; #2 0.392 inactive; #3 -0.354 inactive
CES5A: #1 -0.00107 inactive; #2 0.101 inactive; #3 -0.167 inactive; #4 -0.246 inactive
PRPS1: #1 0.386 inactive; #2 -0.201 inactive; #3 0.00461 inactive; #4 -0.0413 inactive
SLC9A3: #1 0.616 inactive; #2 -0.164 inactive; #3 -0.129 inactive; #4 -0.0707 inactive
ITGA5: #1 -0.0728 inactive; #2 -0.342 inactive; #3 -0.057 inactive; #4 0.164 inactive
